Structures can show the parent of a compound that is named as a salt. The list shows a part of the results. The calls rarely recur for the same compound in another form.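 Kinases were expressed as nanoluciferase fusions in K562 cells and luminescence was read every 4 h between 2 and 18 h as percent of control, DMSO set to 100% and a positive control to 0%. A time point counts as decreased when the signal drops significantly (2 sigma). The hit call is the authors' own, does not follow from the count of time points alone, and its rule is not shown.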
What was measured:
Assay in all cases: number of time points (of 5) at which kinase-Nluc abundance scored as decreased, DMSO-normalised (count); higher = more persistent destabilization
Conditions in all cases: K562; 2-18 h
CAMK2A = CAMK2A (UniProt Q9UQM7)
CAMK2G = CAMK2G (UniProt Q13555)
CDK10 = CDK10 (UniProt Q15131)
CDK2 = CDK2 (UniProt P24941)
CDK3 = CDK3 (UniProt Q00526)
CDK5 = CDK5 (UniProt Q00535)
CDK6 = CDK6 (UniProt Q00534)
CHEK2 = CHEK2 (UniProt O96017)
CSF1R = CSF1R (UniProt P07333)
CSK = CSK (UniProt P41240)
CSNK1A1 = CSNK1A1 (UniProt P48729)
CSNK1D = CSNK1D (UniProt P48730)
DDR1 = DDR1 (UniProt Q08345)
DYRK1B = DYRK1B (UniProt Q9Y463)
DYRK2 = DYRK2 (UniProt Q92630)
EGFR = EGFR (UniProt P00533)
EGFR_G719S = EGFR_G719S (UniProt P00533)
EGFR_G719S_T790M = EGFR_G719S_T790M (UniProt P00533)
EGFR_L718V = EGFR_L718V (UniProt P00533)
EGFR_L858R = EGFR_L858R (UniProt P00533)

Sequences of proteins named here, by UniProt entry; tags and fusion partners are left off. A change or cut given only in a name is not applied to a line headed by its entry.
UniProt Q9UQM7, whole entry: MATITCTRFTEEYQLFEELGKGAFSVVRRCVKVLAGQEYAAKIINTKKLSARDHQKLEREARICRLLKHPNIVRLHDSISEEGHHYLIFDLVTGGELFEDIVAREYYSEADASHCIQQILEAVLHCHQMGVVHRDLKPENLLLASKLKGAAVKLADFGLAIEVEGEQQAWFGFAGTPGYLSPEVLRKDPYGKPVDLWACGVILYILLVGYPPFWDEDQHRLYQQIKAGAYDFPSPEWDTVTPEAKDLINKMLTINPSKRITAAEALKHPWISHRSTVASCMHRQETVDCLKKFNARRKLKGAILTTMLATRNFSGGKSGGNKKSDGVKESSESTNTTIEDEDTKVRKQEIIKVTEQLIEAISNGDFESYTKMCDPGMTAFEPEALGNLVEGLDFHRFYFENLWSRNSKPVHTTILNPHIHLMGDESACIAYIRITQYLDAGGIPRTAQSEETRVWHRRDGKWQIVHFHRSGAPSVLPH
UniProt Q13555: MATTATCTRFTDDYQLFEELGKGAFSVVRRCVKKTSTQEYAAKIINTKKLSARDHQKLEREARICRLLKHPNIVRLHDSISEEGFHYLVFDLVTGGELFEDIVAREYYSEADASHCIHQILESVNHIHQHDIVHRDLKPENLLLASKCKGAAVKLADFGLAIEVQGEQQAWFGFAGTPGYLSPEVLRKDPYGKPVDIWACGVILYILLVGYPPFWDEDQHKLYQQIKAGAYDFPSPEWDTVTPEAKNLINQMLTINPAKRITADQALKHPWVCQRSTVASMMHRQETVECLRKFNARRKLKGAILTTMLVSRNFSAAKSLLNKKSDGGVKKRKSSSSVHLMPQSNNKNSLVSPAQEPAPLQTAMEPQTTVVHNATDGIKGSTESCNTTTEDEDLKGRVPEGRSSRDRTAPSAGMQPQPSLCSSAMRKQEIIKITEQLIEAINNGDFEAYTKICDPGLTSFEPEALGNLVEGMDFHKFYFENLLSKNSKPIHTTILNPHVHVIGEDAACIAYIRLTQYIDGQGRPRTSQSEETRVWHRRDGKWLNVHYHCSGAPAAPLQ
UniProt Q15131: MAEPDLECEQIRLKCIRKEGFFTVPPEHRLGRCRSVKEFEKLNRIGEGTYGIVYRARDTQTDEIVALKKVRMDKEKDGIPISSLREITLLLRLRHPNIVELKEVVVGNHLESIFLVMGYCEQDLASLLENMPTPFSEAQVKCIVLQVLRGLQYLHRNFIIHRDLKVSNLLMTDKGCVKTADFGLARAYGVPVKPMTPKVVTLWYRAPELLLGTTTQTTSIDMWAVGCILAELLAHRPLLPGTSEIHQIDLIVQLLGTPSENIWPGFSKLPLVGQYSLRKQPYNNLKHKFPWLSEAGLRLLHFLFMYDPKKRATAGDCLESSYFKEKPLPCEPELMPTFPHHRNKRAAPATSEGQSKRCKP
UniProt Q00526: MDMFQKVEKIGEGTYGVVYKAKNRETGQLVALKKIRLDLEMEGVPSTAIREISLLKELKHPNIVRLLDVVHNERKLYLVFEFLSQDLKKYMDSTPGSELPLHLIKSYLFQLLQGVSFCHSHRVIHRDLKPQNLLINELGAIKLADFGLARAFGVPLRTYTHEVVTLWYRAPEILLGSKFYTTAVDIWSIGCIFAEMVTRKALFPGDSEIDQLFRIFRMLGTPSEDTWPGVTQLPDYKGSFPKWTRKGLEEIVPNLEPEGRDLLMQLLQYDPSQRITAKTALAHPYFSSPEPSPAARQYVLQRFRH
UniProt Q00535, whole entry, looked up: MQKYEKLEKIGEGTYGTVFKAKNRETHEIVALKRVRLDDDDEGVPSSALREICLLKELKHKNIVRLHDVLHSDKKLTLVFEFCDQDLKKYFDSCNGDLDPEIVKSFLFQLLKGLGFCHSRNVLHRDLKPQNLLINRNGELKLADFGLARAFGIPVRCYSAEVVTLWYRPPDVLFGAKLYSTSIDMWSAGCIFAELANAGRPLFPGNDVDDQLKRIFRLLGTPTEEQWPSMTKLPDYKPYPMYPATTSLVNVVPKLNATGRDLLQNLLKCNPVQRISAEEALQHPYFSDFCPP
UniProt Q00534, whole entry: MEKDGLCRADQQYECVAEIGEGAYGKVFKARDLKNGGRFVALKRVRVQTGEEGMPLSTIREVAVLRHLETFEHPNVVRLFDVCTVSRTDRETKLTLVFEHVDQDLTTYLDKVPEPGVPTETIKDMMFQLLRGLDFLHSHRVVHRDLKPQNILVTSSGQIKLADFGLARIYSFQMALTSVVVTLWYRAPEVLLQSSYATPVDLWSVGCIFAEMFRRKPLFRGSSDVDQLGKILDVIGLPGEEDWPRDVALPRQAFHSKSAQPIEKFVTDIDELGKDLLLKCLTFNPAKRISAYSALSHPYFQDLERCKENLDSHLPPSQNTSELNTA
UniProt O96017, whole entry: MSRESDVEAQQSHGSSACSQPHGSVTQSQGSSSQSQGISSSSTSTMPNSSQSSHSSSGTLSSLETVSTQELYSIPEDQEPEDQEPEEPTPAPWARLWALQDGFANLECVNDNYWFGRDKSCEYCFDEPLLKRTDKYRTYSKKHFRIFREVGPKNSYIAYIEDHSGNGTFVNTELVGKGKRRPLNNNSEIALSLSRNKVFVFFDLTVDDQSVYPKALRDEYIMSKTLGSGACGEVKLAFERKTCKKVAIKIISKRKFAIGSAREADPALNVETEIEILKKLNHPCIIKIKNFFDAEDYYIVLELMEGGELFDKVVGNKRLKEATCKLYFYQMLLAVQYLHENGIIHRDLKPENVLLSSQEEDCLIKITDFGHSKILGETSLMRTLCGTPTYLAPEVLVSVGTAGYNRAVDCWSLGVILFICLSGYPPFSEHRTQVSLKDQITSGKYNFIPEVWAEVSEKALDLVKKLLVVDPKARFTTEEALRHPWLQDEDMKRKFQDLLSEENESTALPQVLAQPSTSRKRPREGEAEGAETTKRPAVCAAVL
UniProt P07333, whole entry: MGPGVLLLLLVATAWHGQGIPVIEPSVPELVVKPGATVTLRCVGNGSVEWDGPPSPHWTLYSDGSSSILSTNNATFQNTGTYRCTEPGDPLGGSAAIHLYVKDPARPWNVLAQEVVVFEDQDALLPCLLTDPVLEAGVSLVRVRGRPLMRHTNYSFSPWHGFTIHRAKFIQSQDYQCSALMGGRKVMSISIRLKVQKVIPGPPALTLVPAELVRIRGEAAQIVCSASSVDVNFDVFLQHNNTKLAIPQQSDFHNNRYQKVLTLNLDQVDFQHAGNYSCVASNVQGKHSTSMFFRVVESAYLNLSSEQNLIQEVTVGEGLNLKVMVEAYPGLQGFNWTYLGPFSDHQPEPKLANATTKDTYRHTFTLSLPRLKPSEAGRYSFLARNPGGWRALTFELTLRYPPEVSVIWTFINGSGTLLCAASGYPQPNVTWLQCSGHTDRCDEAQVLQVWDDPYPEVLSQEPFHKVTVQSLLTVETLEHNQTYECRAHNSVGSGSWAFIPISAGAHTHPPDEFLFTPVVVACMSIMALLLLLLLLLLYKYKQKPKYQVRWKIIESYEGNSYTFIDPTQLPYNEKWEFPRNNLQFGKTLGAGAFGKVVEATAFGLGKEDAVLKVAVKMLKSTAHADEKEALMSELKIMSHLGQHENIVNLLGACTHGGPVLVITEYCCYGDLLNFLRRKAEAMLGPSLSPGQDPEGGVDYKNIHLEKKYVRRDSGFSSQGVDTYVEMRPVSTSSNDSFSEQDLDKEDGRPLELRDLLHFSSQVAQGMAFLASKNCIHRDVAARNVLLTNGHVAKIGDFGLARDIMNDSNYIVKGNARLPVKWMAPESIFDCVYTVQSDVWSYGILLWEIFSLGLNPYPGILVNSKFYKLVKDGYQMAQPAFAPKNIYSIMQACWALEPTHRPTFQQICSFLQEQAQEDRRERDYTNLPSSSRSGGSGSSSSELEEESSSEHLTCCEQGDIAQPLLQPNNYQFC
UniProt P41240: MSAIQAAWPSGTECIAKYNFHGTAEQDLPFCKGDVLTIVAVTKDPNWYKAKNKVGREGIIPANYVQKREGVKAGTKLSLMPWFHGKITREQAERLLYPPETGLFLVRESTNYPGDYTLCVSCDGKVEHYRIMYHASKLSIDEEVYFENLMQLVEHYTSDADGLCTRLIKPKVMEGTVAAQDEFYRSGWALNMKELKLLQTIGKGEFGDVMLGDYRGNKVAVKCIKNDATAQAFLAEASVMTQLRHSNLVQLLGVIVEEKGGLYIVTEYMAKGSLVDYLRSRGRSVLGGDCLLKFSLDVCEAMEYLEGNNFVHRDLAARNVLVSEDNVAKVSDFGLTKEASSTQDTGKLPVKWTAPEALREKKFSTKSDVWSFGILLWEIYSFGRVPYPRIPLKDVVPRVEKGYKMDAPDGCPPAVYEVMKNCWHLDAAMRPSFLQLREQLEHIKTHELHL
UniProt P48729: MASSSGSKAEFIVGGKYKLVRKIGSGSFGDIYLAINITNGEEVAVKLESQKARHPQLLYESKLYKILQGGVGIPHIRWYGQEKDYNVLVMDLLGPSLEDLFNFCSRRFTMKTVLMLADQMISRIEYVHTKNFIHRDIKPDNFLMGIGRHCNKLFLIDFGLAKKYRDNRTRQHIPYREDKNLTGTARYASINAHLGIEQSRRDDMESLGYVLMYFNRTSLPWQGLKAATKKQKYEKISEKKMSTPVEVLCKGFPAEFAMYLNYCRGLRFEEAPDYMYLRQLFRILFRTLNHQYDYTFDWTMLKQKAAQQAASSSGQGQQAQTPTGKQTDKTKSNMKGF
UniProt P48730: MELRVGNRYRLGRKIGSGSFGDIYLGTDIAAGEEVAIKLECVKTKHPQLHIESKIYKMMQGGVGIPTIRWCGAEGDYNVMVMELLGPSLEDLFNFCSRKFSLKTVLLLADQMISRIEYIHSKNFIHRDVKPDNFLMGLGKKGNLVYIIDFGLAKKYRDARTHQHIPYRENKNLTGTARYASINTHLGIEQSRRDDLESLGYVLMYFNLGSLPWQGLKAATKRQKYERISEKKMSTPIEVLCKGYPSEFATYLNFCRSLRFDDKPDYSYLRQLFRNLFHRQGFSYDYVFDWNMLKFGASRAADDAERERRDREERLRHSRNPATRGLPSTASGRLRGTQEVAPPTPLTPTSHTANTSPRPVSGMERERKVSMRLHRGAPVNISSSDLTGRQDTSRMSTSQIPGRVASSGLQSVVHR
UniProt Q08345: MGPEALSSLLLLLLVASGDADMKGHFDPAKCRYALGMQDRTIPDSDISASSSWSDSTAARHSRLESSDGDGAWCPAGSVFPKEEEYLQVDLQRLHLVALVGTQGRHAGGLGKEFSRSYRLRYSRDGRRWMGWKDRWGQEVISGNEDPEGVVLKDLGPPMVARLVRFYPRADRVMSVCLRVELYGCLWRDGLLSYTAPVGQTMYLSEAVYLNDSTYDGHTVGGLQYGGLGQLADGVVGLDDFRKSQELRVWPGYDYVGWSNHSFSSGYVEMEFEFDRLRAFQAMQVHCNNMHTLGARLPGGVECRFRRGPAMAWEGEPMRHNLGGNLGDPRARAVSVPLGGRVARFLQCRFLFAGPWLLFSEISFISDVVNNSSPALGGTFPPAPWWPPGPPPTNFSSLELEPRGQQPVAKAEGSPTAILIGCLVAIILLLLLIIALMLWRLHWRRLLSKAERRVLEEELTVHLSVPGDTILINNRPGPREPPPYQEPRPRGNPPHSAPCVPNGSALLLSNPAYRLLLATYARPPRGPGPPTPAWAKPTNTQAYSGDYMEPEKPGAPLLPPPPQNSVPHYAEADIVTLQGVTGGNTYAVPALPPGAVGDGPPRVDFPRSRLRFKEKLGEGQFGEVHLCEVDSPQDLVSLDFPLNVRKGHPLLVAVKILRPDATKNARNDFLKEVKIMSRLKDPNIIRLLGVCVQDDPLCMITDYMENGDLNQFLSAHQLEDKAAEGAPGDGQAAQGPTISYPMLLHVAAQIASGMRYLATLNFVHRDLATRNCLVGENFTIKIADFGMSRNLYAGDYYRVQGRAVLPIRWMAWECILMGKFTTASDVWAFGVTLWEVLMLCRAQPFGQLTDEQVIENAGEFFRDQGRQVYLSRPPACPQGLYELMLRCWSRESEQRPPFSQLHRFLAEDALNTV
UniProt Q9Y463, whole entry, looked up: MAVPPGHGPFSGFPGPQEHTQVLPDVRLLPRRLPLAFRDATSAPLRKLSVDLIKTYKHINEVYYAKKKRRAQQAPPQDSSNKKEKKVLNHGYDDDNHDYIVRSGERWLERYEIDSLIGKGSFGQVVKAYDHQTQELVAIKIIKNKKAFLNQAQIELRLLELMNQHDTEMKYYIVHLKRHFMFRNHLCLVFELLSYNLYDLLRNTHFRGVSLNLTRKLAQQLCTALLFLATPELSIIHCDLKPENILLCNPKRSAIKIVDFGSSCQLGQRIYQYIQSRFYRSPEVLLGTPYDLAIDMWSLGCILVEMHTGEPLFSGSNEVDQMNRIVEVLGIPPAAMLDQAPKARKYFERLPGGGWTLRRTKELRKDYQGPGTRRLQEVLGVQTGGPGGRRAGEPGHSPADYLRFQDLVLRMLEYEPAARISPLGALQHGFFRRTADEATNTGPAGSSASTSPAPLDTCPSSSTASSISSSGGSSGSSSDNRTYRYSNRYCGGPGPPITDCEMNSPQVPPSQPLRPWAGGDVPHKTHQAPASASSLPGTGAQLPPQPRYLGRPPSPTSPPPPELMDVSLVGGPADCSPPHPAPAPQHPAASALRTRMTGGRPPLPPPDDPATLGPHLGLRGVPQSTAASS

Measured: number of time points

CCCCCCCCCCCCC/C=C/[C@@H](O)[C@@H](N)CO [D-erythro-Sphingosine] (2.5 µM)
0: all assays above

Cc1cccc(Oc2cnc(=O)[nH]c2)c1 [Tolimidone] (10 µM)
0: all assays above

CN1CCN(c2cnc3c(C4CCN(C(=O)c5ccc(OC(F)(F)F)cc5N)CC4)ncnc3c2)CC1 (10 µM)
0: all assays above

CC#CC(=O)N1CC[C@@H](n2c(=O)n(-c3ccc(Oc4ccccc4)cc3)c3c(N)ncnc32)C1 [Tirabrutinib (hydrochloride)] (10 µM)
0: all assays above

O=Nc1c(-c2c(O)[nH]c3ccc(F)cc23)[nH]c2ccccc12 [5'-Fluoroindirubinoxime] (10 µM)
0: all assays above

Cn1cc(-c2ccc3c(c2)CCN3C(=O)Cc2cccc(C(F)(F)F)c2)c2c(N)ncnc21 (2.5 µM)
0: all assays above

Cc1cc(O)c2c(c1)C(=O)c1cc(O)cc(O)c1C2=O [Emodin] (10 µM)
0: all assays above

NCCNS(=O)(=O)c1cccc2c(Cl)cccc12 [A-3 (hydrochloride)] (10 µM)
0: all assays above

Cn1cnc(Cn2ccc3ccc(CNCc4[nH]c5ccccc5c4[C@H]4NC(=O)c5ccc(O)cc54)cc32)c1 (10 µM)
0: all assays above

Cn1nccc1Nc1nccc(-c2ccn([C@H](CO)c3ccc(Cl)c(F)c3)c(=O)c2)n1 [Ravoxertinib hydrochloride] (10 µM)
not listed: CDK2
0: all other assays above

COc1cc2nccc(Oc3ccc(NC(=O)NC4CC4)c(Cl)c3)c2cc1C(N)=O [Lenvatinib (mesylate)] (10 µM)
3: CSNK1A1
1: DYRK1B | EGFR | EGFR_G719S_T790M
4: DYRK2
2: CHEK2 | EGFR_L858R
0: all other assays above

Cc1[nH]c(/C=C2\C(=O)Nc3ccccc32)c(C)c1CCC(=O)O [(Z)-Orantinib] (10 µM)
not listed: CSNK1D | EGFR | EGFR_G719S | EGFR_G719S_T790M | EGFR_L718V | EGFR_L858R
0: all other assays above

Nc1nc2ccc(Cl)cc2c2nc(-c3ccco3)nn12 (10 µM)
0: all assays above

— the supplement of paper PMC12823440, “Inhibitors supercharge kinase turnover through native proteolytic circuits” (Nature, 2025)
